# Assay results from patent publication US6565890B2, “Antiviral drugs containing heteropolyanions” (priority 2001, dated 2003).
# Some entries share one result that the patent states for a list of compounds.
# Tested on: respective culture cells (CV-1, MDCK, HEp-2, HMV-2, Vero, MT-4, RPM18226)
# Details: read-out: toxicity CC50; for respective culture cells
row,Substance,CC50 [µM]
1,K6H4[(SbW9O33)2V3O3].29.5H2O [PM-1001],> 100
2,K6H6[(SbW9O33)2V3O3].29.5H2O [PM-1002],> 100
